Measurements reported in PubChem BioAssay AID1259308 (NCATS, 2017)
Here is a random part of about 59,000 deposited reagents. About 1,510 of all reagents (2.6%) were called active. 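Calls use total luciferase alone and ignore viability, so some active siRNAs may act by altering cell number.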 Unmarked entries are inactive. The numbers tell different reagents against one gene apart. Further read-outs or replicates are left out here.

- Aim: 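Knock-downs that increase output of a recombinant reporter protein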 (primary screen)
- Cell system: human HEK293 embryonic kidney cells stably expressing firefly luciferase (HEK-CMV-Luc2-Hygro)
- Reagent: single siRNA against human genes, 0.8 pmol siRNA per well
- Duration: 72 h
- Read-out: 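Luciferase light (ONE-Glo) measured on one replicate plate set and viability (CellTiter-Glo) on the other, scaled to a negative control siRNA, with robust z-scores and luciferase per cell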
- Direction: total luciferase, z-score: higher = more reporter protein produced
- Rule for the call: 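Active when the median/MAD z-score for overall luciferase is greater than 3; a gene was taken forward for validation with new siRNAs if at least two of its three siRNAs passed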
- Meaning of the calls: active = raised luciferase; inactive = no rise

no.	Target gene	reagent	total luciferase, z-score
1	BICDL1	1	1.06
2	BICDL1	2	2.09
3	BICDL1	3	0.753
4	GOLGA6L2	1	2.93
5	GOLGA6L2	2	1.64
6	GOLGA6L2	3	1.39
7	ULBP3	1	-0.825
8	ULBP3	2	0.197
9	ULBP3	3	-0.395
10	GPR173	1	-1.04
11	GPR173	2	-0.436
12	GPR173	3	1.48
13	ZNF662	1	3.36 (active)
14	ZNF662	2	-0.0254
15	ZNF662	3	-0.293
16	LINC02447	1	-1.67
17	LINC02447	2	-0.531
18	LINC02447	3	2.09
19	CERS3	1	0.193
20	CERS3	2	-0.887
21	CERS3	3	1.08
22	COL11A1	1	-0.832
23	COL11A1	2	-1.9
24	COL11A1	3	1.8
25	TMEM95	1	0.21
26	TMEM95	2	-0.313
27	TMEM95	3	-0.0903
28	SCNN1A	1	-0.325
29	SCNN1A	2	-0.984
30	SCNN1A	3	2.15
31	REELD1	1	-0.461
32	REELD1	2	0.219
33	REELD1	3	1.21

In a second layout: entries from further up.
Target gene	reagent	total luciferase, z-score
ZNF662	2	-0.0254
ZNF662	3	-0.293
LINC02447	1	-1.67
LINC02447	2	-0.531
LINC02447	3	2.09
CERS3	1	0.193
CERS3	2	-0.887
CERS3	3	1.08
COL11A1	1	-0.832

Additional records follow:
no.	Target gene	reagent	total luciferase, z-score
34	PLPPR5	1	-0.808
35	PLPPR5	2	0.439
36	PLPPR5	3	1.04
37	MILR1	1	-0.55
38	MILR1	2	0.478
39	MILR1	3	0.897
40	RANBP1P1	1	-2.06
41	RANBP1P1	2	0.799
42	RANBP1P1	3	-0.426
43	PHF6	1	-1.13
44	PHF6	2	1.17
45	PHF6	3	-0.524
46	CBR4	1	-0.885
47	CBR4	2	0.933
48	CBR4	3	-1.65
49	TMEM184C	1	-0.36
50	TMEM184C	2	-0.176
51	TMEM184C	3	-0.636
52	CYP27B1	1	-1.22
53	CYP27B1	2	-0.46
54	CYP27B1	3	-1.3
55	MCOLN1	1	0.25
56	MCOLN1	2	2.06
57	MCOLN1	3	0.216
